We go through three molecules from article PMC5001636.

The chains behind the UniProt entries cited, without tags or fusion partners.
UniProt P11978: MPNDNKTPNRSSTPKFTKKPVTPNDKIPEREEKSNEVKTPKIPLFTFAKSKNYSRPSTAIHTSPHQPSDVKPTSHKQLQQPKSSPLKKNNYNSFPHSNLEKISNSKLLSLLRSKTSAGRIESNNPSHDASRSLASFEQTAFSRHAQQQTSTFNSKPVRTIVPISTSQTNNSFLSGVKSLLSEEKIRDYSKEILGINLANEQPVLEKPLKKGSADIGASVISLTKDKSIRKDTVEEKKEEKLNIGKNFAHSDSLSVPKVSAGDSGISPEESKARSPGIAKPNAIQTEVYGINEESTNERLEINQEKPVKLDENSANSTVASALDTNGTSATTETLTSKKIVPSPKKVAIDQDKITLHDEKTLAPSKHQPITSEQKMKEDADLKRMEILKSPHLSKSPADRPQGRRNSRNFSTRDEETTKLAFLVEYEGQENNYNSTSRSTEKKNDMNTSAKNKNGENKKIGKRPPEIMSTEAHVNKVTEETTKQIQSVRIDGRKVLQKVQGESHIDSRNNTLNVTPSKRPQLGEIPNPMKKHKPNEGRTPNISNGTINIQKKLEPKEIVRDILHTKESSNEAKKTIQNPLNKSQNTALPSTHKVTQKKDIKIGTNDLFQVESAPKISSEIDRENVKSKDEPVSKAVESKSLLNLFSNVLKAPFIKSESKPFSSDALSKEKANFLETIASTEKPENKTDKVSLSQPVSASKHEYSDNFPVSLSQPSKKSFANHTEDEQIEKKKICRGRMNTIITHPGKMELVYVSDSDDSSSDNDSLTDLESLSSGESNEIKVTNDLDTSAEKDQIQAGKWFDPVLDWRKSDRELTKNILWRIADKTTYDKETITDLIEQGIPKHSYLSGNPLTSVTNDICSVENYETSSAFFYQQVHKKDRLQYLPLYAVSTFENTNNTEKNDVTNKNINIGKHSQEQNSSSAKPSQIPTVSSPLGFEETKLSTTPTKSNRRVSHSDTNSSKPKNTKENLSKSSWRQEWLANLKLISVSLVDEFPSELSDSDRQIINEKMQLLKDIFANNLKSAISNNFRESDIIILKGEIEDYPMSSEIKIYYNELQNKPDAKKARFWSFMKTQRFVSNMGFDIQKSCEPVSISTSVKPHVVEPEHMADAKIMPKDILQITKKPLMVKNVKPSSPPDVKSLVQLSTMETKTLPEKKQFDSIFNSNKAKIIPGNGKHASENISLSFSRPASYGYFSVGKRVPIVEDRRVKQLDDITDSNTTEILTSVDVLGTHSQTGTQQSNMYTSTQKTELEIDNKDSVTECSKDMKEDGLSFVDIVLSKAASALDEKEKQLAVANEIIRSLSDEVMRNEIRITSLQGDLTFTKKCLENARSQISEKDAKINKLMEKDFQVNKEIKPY

The target of assay [1] is T1, Smc6^FLAG (S. cerevisiae) (UniProt Q12749).
T1 sequence: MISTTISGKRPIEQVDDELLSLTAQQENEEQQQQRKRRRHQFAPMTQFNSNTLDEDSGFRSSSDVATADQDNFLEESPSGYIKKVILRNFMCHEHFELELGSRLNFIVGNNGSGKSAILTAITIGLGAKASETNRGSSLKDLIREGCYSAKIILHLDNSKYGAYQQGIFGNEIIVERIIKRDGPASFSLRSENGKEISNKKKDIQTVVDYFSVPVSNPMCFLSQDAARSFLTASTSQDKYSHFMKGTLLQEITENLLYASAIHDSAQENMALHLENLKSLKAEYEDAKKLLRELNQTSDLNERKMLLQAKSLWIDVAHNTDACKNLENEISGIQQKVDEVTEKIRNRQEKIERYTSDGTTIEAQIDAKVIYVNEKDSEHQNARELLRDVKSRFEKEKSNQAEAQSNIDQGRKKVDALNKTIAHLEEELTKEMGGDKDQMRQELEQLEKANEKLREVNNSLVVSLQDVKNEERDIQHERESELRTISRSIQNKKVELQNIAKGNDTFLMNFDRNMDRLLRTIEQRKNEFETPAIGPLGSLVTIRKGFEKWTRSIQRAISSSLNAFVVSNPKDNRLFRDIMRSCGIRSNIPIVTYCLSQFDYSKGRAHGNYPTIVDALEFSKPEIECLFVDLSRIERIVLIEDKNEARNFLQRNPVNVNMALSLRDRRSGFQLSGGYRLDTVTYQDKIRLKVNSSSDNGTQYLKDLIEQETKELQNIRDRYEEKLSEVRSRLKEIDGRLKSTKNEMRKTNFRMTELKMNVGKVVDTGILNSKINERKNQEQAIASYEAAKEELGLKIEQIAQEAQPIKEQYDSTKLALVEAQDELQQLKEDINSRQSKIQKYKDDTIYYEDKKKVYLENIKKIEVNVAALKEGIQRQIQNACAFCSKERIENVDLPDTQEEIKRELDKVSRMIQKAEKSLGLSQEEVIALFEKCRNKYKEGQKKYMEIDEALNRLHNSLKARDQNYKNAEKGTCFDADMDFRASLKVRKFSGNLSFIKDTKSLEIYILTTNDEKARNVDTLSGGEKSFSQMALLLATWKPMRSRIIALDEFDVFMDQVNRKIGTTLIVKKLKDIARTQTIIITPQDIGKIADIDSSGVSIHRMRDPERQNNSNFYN
Description: co-IP; Smc6^FLAG immunoprecipitated, blot for Sir4^Myc; stationary phase cultures, no chromatin spin, wash buffer with 250 mM NaCl.

For assay [2], the target named is T2, Nse3^LexA full-length (S. cerevisiae) (UniProt Q05541).
T2 sequence: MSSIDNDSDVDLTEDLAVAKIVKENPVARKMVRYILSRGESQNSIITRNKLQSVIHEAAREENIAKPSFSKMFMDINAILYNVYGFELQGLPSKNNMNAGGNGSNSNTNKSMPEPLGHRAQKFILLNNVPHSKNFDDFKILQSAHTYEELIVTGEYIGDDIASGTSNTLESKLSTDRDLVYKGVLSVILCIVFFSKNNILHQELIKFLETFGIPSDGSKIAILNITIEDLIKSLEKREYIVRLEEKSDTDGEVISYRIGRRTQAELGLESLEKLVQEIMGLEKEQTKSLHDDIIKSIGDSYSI
As to the kind of experiment: two-hybrid; LexA bait (pEG202), prey (pJG4-6), LacZ reporter pSH18034 in JC1280; 2% galactose or glucose for 6 hours at 30°C; β-galactosidase activity in permeabilized cells.

In the next assay the target is Sir4^Myc (S. cerevisiae) (UniProt P11978). As to the kind of experiment: co-IP; Sir4^Myc precipitated with Myc antibody-coupled beads from lysates clarified at 13200 rpm; wash buffer with 250 mM LiCl; blot for Nse3^HA.

Results are given in words; binding and its absence hold for the method and conditions named. For part of these data: Binding seen in cells or lysates may run through a third protein. Some binding calls cover weakened binding; strength is not graded here. Tags and fused reporters may be left off the sequences shown.

Regarding Sir4^Myc (from UniProt P11978 1-1358), the binding entry in assay [1] was “binds”.

B1: Rif2^HA (two-hybrid prey) (protein, UniProt Q06208 1-395)
chain: MEHVDSDFAPIRRSKKVVDSDKIVKAISDDLEQKNFTVLRKLNLVPIKKSVSSPKVCKPSPVKERVDHVFYQKFKSMALQELGTNYLSISYVPSLSKFLSKNLRSMKNCIVFFDKVEHIHQYAGIDRAVSETLSLVDINVVIIEMNDYLMKEGIQSSKSKECIESMGQASYSGQLDFEASEKPSNHTSDLMMMVMRKINNDESIDHIVYFKFEQLDKLSTSTIIEPSKLTEFINVLSVLEKSNNIAFKVLIYSNNVSISSLLSTSLKKKLNTKYTVFEMPILTCAQEQEYLKKMIKFTFDSGSKLLQSYNSLVTCQLNNKESNLAIFFEFLKVFPHPFTYLFNAYTEIIVQSRTFDELLDKIRNRLTIKNYPHSAYNFKKNQRLPLKLTRKVHDR
On to B1, for which, in assay [2], the binding entry is recorded as “binds”.

B2: Nse3^HA (protein, UniProt Q05541 1-303)
chain: MSSIDNDSDVDLTEDLAVAKIVKENPVARKMVRYILSRGESQNSIITRNKLQSVIHEAAREENIAKPSFSKMFMDINAILYNVYGFELQGLPSKNNMNAGGNGSNSNTNKSMPEPLGHRAQKFILLNNVPHSKNFDDFKILQSAHTYEELIVTGEYIGDDIASGTSNTLESKLSTDRDLVYKGVLSVILCIVFFSKNNILHQELIKFLETFGIPSDGSKIAILNITIEDLIKSLEKREYIVRLEEKSDTDGEVISYRIGRRTQAELGLESLEKLVQEIMGLEKEQTKSLHDDIIKSIGDSYSI
As to B2, the binding entry with Sir4^Myc (S. cerevisiae) is listed as “binds”.
